According to paper PMC9655198:
No constants are given. Whether binding was seen depends on the method and setting. In cells and extracts the contact can be indirect. Some binding calls cover weakened binding; strength is not graded here.

Chains of the proteins cited; added tags and fusions are not shown. Lines headed by an entry give the natural chain unless they say otherwise; changes in a name come on top. A line that says so, or that is headed by a name, gives the form on record, which may keep a tag or linker.
UniProt Q9HCL3: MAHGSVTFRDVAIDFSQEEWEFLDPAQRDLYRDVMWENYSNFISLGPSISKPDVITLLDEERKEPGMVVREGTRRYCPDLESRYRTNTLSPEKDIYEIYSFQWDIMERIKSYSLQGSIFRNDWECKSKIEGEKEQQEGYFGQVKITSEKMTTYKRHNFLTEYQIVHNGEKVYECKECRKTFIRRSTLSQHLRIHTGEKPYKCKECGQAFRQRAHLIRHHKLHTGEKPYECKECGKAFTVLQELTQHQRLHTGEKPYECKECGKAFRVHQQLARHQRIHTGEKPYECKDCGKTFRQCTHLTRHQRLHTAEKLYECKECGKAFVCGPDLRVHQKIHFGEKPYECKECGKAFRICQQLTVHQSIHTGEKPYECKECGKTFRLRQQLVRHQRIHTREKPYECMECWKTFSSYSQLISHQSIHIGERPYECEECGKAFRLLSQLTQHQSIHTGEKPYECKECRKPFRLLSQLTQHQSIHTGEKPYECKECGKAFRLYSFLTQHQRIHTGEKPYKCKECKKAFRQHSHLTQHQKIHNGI
GST-ZFP14 DV:AA mutant (Q9HCL3, form named): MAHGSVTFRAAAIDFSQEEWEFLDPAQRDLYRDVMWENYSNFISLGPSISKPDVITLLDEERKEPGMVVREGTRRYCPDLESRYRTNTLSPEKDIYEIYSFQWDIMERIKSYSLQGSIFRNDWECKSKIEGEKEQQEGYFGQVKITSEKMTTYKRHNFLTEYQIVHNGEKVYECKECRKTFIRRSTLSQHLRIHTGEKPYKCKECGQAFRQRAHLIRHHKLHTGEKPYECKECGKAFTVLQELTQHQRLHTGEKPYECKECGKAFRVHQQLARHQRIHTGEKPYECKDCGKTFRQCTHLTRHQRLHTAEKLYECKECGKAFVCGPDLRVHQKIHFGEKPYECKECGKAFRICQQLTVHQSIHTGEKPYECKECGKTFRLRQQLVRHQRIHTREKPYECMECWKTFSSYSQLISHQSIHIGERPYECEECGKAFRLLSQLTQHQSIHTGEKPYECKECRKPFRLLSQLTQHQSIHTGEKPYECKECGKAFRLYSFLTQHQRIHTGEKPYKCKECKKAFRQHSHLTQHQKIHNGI
UniProt Q00987: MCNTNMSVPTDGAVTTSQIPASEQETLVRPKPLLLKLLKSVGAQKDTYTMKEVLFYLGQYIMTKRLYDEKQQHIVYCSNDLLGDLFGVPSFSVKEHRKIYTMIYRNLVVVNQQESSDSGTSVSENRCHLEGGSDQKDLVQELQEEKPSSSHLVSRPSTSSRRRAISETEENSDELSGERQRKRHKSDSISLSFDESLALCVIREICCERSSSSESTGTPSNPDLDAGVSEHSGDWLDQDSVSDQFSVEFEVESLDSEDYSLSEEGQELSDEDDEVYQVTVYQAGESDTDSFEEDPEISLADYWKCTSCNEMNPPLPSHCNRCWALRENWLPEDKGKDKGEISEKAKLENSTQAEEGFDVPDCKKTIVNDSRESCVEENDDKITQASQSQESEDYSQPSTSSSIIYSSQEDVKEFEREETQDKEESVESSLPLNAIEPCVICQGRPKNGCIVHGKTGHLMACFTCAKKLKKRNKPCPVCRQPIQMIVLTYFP

Experiments:
[1] = molecular target: GST-ZFP14 DV:AA mutant (human) (UniProt Q9HCL3); test: pull-down; 1 μg GST fusion protein bound to glutathione beads, incubated with HCT116 cell lysate (20 mM Tris-HCl pH 7.5, 150 mM NaCl, 0.5% NP-40) for 4 h at 4 °C; Western blot; only the target purified
[2] = molecular target: GST-tagged full-length ZFP14 (human) (UniProt Q9HCL3); test: as above
[3] = molecular target: GST-tagged full-length ZFP14 (human) (UniProt Q9HCL3); test: pull-down; 1 μg GST fusion protein bound to glutathione beads, incubated with HCT116-p53-KO cell lysate (20 mM Tris-HCl pH 7.5, 150 mM NaCl, 0.5% NP-40) for 4 h at 4 °C; Western blot; only the target purified
[4] = molecular target: HA-ZFP14 (human ZFP14, HA-tagged) (human) (UniProt Q9HCL3); test: co-IP; lysates of HCT116 cells overexpressing p53 and HA-ZFP14; IP with anti-HA or anti-p53, control IgG; IP-lysis buffer 20 mM Tris-HCl pH 7.5, 150 mM NaCl, 0.5% NP-40, 1 mM EDTA; benzonase-treated; overnight at 4 °C; Western blot
[5] = molecular target: HA-ZFP14 (human ZFP14, HA-tagged) (human) (UniProt Q9HCL3); test: co-IP; lysates of HCT116 cells overexpressing only HA-ZFP14 (p53 and MDM2 endogenous); IP with anti-HA or anti-p53, control IgG; IP-lysis buffer 20 mM Tris-HCl pH 7.5, 150 mM NaCl, 0.5% NP-40, 1 mM EDTA; benzonase-treated; overnight at 4 °C; Western blot

binding [1]: binds
binding [2]: binds
binding [3]: binds
binding [4]: binds
binding [5]: binds
Substance: endogenous MDM2 (from UniProt Q00987 1-491)
